# Laboratory results as given in publication doi:10.1101/2021.01.04.425237.
# Where two headings read alike, the source gives them in different places. These are yes or no findings as the source states them, for the method shown. Some entries that bind do so weakly or less than the wild type.
# T1: YoaA (wild type), DinG-family helicase of Escherichia coli (Escherichia coli) (UniProt P76257)
# T1 sequence: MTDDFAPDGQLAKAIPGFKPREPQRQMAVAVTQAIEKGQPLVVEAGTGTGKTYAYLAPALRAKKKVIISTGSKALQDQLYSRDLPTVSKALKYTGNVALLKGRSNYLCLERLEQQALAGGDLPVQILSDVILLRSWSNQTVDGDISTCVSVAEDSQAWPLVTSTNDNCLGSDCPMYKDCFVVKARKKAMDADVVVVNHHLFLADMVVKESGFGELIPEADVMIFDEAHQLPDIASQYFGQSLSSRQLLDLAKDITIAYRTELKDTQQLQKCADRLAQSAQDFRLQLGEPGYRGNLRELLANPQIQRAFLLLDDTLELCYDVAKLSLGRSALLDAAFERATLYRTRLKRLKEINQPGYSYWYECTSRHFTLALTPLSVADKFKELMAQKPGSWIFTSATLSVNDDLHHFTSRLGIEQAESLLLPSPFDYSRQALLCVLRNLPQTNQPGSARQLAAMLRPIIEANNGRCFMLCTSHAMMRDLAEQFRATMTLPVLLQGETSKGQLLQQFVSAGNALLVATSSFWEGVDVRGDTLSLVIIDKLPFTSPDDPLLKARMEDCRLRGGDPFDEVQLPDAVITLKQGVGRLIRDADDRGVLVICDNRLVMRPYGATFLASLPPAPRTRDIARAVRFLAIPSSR
# Tests used:
# Assay in all cases: two-hybrid
# [1] = target: YoaAΔ619-636 C terminal truncation (Escherichia coli) (UniProt P76257)
# [2] = target: YoaA R619A (Escherichia coli) (UniProt P76257)
# [3] = target: YoaA T620A (Escherichia coli) (UniProt P76257)
# [4] = target: T1, YoaA (wild type), DinG-family helicase of Escherichia coli (Escherichia coli)
# [5] = target: HolC (χ subunit of DNA polymerase III holoenzyme) of Escherichia coli (Escherichia coli) (UniProt P28905)
# [6] = target: HolC (χ subunit of DNA polymerase III holoenzyme) of Escherichia coli (Escherichia coli) (UniProt P28905); remark: listed apart in the source
molecule,measurement,setting,value
HolC (χ subunit of DNA polymerase III holoenzyme) of Escherichia coli (from UniProt P28905 1-147),binding,[1],no binding
same,binding,[2],no binding
same,binding,[3],no binding
same,binding,[4],binds
YoaA R619A (from UniProt P76257 1-636) (enzyme),binding,[5],no binding
YoaA T620A (from UniProt P76257 1-636) (enzyme),binding,[5],no binding
YoaAΔ619-636 C terminal truncation (from UniProt P76257 1-618) (domain or fragment),binding,[5],no binding
"YoaA (wild type), DinG-family helicase of Escherichia coli (enzyme, UniProt P76257 1-636) MTDDFAPDGQLAKAIPGFKPREPQRQMAVAVTQAIEKGQPLVVEAGTGTGKTYAYLAPALRAKKKVIISTGSKALQDQLYSRDLPTVSKALKYTGNVALLKGRSNYLCLERLEQQALAGGDLPVQILSDVILLRSWSNQTVDGDISTCVSVAEDSQAWPLVTSTNDNCLGSDCPMYKDCFVVKARKKAMDADVVVVNHHLFLADMVVKESGFGELIPEADVMIFDEAHQLPDIASQYFGQSLSSRQLLDLAKDITIAYRTELKDTQQLQKCADRLAQSAQDFRLQLGEPGYRGNLRELLANPQIQRAFLLLDDTLELCYDVAKLSLGRSALLDAAFERATLYRTRLKRLKEINQPGYSYWYECTSRHFTLALTPLSVADKFKELMAQKPGSWIFTSATLSVNDDLHHFTSRLGIEQAESLLLPSPFDYSRQALLCVLRNLPQTNQPGSARQLAAMLRPIIEANNGRCFMLCTSHAMMRDLAEQFRATMTLPVLLQGETSKGQLLQQFVSAGNALLVATSSFWEGVDVRGDTLSLVIIDKLPFTSPDDPLLKARMEDCRLRGGDPFDEVQLPDAVITLKQGVGRLIRDADDRGVLVICDNRLVMRPYGATFLASLPPAPRTRDIARAVRFLAIPSSR",binding,[6],binds
